Measured values as given in paper PMC9299292, “The nuclear egress complex of Epstein-Barr virus buds membranes through an oligomerization-driven mechanism” (PLoS Pathogens, 2022).
No constants are given. Whether binding was seen depends on the method and setting. Some binding calls cover weakened binding; strength is not graded here.

B1: EBV BFLF2 66-318 (domain or fragment, UniProt P0CK47 66-318)
chain: RSICSRHTRHGVDRSHFSLRDFFRGISANFELGKDFLREMNTPIHVSEAVFLPLSLCTLSPGRCLRLSPFGHSLTLGSHCEICINRSQVHVPQEFSSTQLSFFNNVHKIIPNKTFYVSLLSSSPSAVKAGLSQPSLLYAYLVTGHFCGTICPIFSTNGKGRLIMHLLLQGTSLHIPETCLKLLCENIGPTYELAVDLVGDAFCIKVSPRDTVYEKAVNVDEDAIYEAIKDLECGDELRLQIINYTQLILENKQ

Experiments:
[1] = target: EBV BFRF1 1-228-His8 (Epstein-Barr virus (strain B95-8)) (UniProt P03185); assay: co-purification (tandem affinity + SEC); co-expressed in E. coli; Ni-NTA (His-SUMO on BFLF2), then glutathione Sepharose (GST on BFRF1), tags cleaved on the column with PreScission protease, some constructs over HisTrap HP, then S75 10/300 size exclusion in 20 mM buffer, 100 mM NaCl, 0.5 mM TCEP; 4°C
[2] = target: T1, EBV BFRF1 1-195 (Epstein-Barr virus (strain B95-8)) (UniProt P03185); assay: crystal structure; EBV NEC195Δ65; hanging drops at 20°C, protein in 20 mM HEPES pH 8.0, 100 mM NaCl, 0.5 mM TCEP over 25% PEG 3350, 0.1 M Tris-HCl pH 8.5, 0.2 M Li2SO4; space group P4(3)2(1)2, five heterodimers in the asymmetric unit; 3.97 Å; both purified
T1 sequence: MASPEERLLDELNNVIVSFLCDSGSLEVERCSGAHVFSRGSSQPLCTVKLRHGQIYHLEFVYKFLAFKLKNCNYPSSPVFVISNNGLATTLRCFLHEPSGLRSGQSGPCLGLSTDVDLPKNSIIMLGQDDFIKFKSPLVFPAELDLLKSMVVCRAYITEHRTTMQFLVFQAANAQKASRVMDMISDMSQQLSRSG

Row | Molecule | binding [1] | binding [2]
1 | EBV BFLF2 45-318 (from UniProt P0CK47 45-318) (domain or fragment) | binds | 
2 | EBV BFLF2 16-318 (from UniProt P0CK47 16-318) (domain or fragment) | binds | 
3 | EBV BFLF2 35-318 (from UniProt P0CK47 35-318) (domain or fragment) | binds | 
4 | EBV BFLF2 25-318 (from UniProt P0CK47 25-318) (domain or fragment) | binds | 
5 | B1 |  | binds
